# Reference: PubChem BioAssay AID540276 (National Center for Advancing Translational Sciences (NCATS), 2011)
# The whole screen tested about 300,000 compounds, of which about 5,400 (1.8%) were called active. The inconclusive results got no clear call from the source; some entries with a clear call stand among them for comparison. The call rests on the fitted dose curve; tested in HEK293 cells. Potencies of inconclusive entries are doubtful fits and often do not repeat.
# Assay: qHTS for inhibitors of binding or entry into cells for Marburg Virus
# Settings: Marburg virus pseudotyped entry inhibition, cell reporter; activity change, negative = inhibition: at 37.8 µM (top of the series) unless noted
# On the % scale 0 is the no-effect control and ±100 the full control effect; potency means the concentration at half of the fitted maximal effect.
Structure (SMILES),"activity change, negative = inhibition",Potency
Cc1ccc(C(=O)COC(=O)C(CC(C)C)NC(=O)C2CCC(C)CC2)cc1 (stereo not given),inactive: 3% [at 46.1 µM],
COC(=O)c1nnn(-c2ccccc2)c1N,,"inconclusive: 29.1 µM [activator, single point]"
CCOc1ccc(CC(=O)Nc2c(C(=O)c3ccc(C)cc3)oc3ccccc23)cc1OCC,,"inconclusive: 6.31 µM [inhibitor, single point]"
CCC(=O)N1CCc2cc(Br)cc(S(=O)(=O)N3CCCC(C(=O)Nc4cccc(Cl)c4C)C3)c21 (stereo not given),inactive: 26% [at 46.1 µM],
CCCCNC(=O)CCn1c(=O)c2ccccc2n(Cc2ccccc2C#N)c1=O,inactive: 0.233% [at 46.1 µM],
CN(Cc1ccc(Cl)c(Cl)c1)C(=O)c1ccccc1SCC(=O)N1CCCC1,inactive: -16.5% [at 46.1 µM],
COc1ccc(C(C)=O)cc1Cn1nc(C)c([N+](=O)[O-])c1C,,"inconclusive: 0.794 µM [activator, full curve, poor fit]"
O=C(Nc1cc(C(F)(F)F)ccc1Cl)C(NCc1ccccc1)c1ccccc1 (stereo not given),inactive: -34.4%,
Cc1ccc(CNC(=O)CSCc2ccc(F)cc2)cc1,,"inconclusive: 7.08 µM [inhibitor, partial curve, poor fit]"
O=C(c1cc(-c2ccccc2)n[nH]1)N1CCc2c([nH]c3ccccc23)C1c1ccccn1 (stereo not given),,active: 5.62 µM
Cc1ccc2nc(NC(=O)C3CCCN3C(=O)OC(C)(C)C)sc2c1 (stereo not given),,"inconclusive: 35.5 µM [inhibitor, single point]"
CCOC(=O)c1cc(C#N)c(N2CCN(c3ccccn3)CC2)nc1-c1ccccc1,,"inconclusive: 11.2 µM [inhibitor, partial curve, poor fit]"
COc1ccccc1NC(=O)c1cccc(S(=O)(=O)N2CCN(Cc3ccccc3)CC2)c1,inactive: -17.1% [at 46.1 µM],
Cc1cc(N2CCCCC2)nc2ccc(NC(=O)/C=C/c3ccccc3OC(C)C)cc12,,"inconclusive: 11.2 µM [inhibitor, partial curve, poor fit]"
N#C/C(=C(/O)CN1CCOCC1)c1nc(-c2ccccc2)cs1,inactive: 17.9%,
O=C(/C=C/c1ccc(Br)cc1)c1ccco1,,"inconclusive: 28.2 µM [inhibitor, single point]"
CN(C)c1cc(O)c(C(=S)Nc2ccccc2)c(N(C)C)c1,,"inconclusive: 35.5 µM [inhibitor, single point]"
CCC(Oc1ccccc1)C(=O)Nc1ccc2oc(-c3ccc(OC)cc3)nc2c1 (stereo not given),,"inconclusive: 2.24 µM [activator, full curve, poor fit]"
CCOc1ccc2c(c1)C(c1ccc(C)o1)=NNC(c1ccncc1)=N2,,"inconclusive: 25.1 µM [inhibitor, single point]"
Cc1c(C(=O)N2CCC3(CC2)OCCO3)sc2ncnc(N3CCc4ccccc4C3)c12,,"inconclusive: 25.1 µM [inhibitor, single point]"
CCCCn1c(N)c(C(=O)NCCN2CCOCC2)c2nc3ccccc3nc21,,"inconclusive: 35.5 µM [inhibitor, single point]"
COC(=O)C1=C(C(=O)OC)[C@@H]2N(Cc3ccccc3)c3ccccc3[C@@]23CCC(=O)N(CCc2ccccn2)C3=N1,,"inconclusive: 0.015 µM [inhibitor, full curve, poor fit]"
S=C(NCCc1ccc(Cl)cc1)NC1CCCCC1,,"inconclusive: 12.6 µM [inhibitor, partial curve, poor fit]"
COc1ccccc1N1CCN(Cc2cc(=O)c(OCC(=O)Nc3ccccc3)co2)CC1,,"inconclusive: 20 µM [inhibitor, single point]"

Structure (SMILES),"activity change, negative = inhibition",Potency
Cc1ccccc1CNC(=O)Cn1ncn2nc(-c3cccs3)cc2c1=O,,"inconclusive: 22.4 µM [inhibitor, single point]"
CC(Sc1ccc(Cl)cc1)C(=O)Nc1ccccc1-c1ccccc1 (stereo not given),,"inconclusive: 14.1 µM [inhibitor, single point]"
CCc1ccc2oc(-c3cccc(NC(=O)c4ccc(N5CCC(C)CC5)c([N+](=O)[O-])c4)c3)nc2c1,,"inconclusive: 2.82 µM [inhibitor, full curve]"
O=C(O)c1ccccc1-c1csc(-c2ccccc2)n1,,"inconclusive: 35.5 µM [activator, single point]"
COc1cccc(-c2nc(CS(=O)(=O)CC(=O)NC3CCC(C)CC3)c(C)o2)c1 (stereo not given),,"inconclusive: 4.47 µM [inhibitor, single point]"
Cc1cc(C)n(CCOC(=O)c2sc3ccccc3c2Cl)n1,inactive: 6.81%,
Cc1ccc(NC(=O)CCNC(=O)c2ccc(Cl)cc2)nc1,,"inconclusive: 0.891 µM [activator, full curve, poor fit]"
CC(=O)Nc1ccc(NC(=O)CCNS(=O)(=O)c2cccc3nsnc23)cc1,,"inconclusive: 15.8 µM [activator, single point]"
COc1ccc(CC(=O)n2[nH]c(=O)cc(C)c2=O)cc1OC,inactive: -8.32% [at 46.1 µM],
COc1ccc(/C=N\NC(=O)c2ccccc2F)cc1COc1ccc(F)cc1F,,"inconclusive: 20 µM [inhibitor, partial curve, poor fit]"
Cc1cc(C)c(S(=O)(=O)NCCOc2ccccc2)c(C)c1-n1cnnn1,,"inconclusive: 10 µM [inhibitor, partial curve, poor fit]"
C=CCC(C(=O)NC(C)c1ccccc1)C(=O)NC(C)c1ccccc1 (stereo not given),,"inconclusive: 3.98 µM [inhibitor, full curve]"
CCOc1cc(C)nc(NCCc2ccc(OC)c(OC)c2)n1,,"inconclusive: 29.1 µM [inhibitor, single point]"
CCN(CC)S(=O)(=O)c1ccc(-c2nnc(SCC(=O)Nc3nc(C)cs3)o2)cc1,,inactive
O=C(NC1CCCCCCC1)c1cnccn1,,"inconclusive: 10 µM [activator, partial curve, poor fit]"
Cc1ccccc1NC(NC(=O)OCCn1c([N+](=O)[O-])cnc1C)C(Cl)(Cl)Cl (stereo not given),,"inconclusive: 35.5 µM [inhibitor, single point]"
CCn1c(C)cc(O)cc1=O,,"inconclusive: 1.26 µM [inhibitor, single point]"
COc1ccc(/C(C)=N/NC(=O)c2ccc(CSc3cccc4cccnc34)cc2)cc1OC,,"inconclusive: 29.1 µM [inhibitor, single point]"
COc1ccc(N/C(N)=N/c2nc(C)cc(C)n2)c(OC)c1,inactive: -6.42% [at 46.1 µM],
Cc1cc2nc(C3CCCN(C(=S)Nc4ccccc4)C3)[nH]c2cc1C (stereo not given),inactive: -4.51%,
O=C(CC1CCCC1)Nc1ccc(Br)cc1,,"inconclusive: 31.6 µM [inhibitor, single point]"
CCOc1ccc(-c2nc(-c3cccnc3)no2)cc1,,active: 5.62 µM
CC1=C(C(N)=O)C(c2cccc(Br)c2)n2nc(SCc3ccccc3)nc2N1 (stereo not given),inactive: -14.4% [at 46.1 µM],
Cn1c(CC(=O)Nc2ccccc2)c(Sc2ccccc2)c2ccccc21,inactive: -18.4%,

Structure (SMILES),"activity change, negative = inhibition",Potency
Cc1cc(=O)[nH]c(SCC(=O)/C=C2\N(C)c3ccccc3C2(C)C)n1,,"inconclusive: 0.92 µM [inhibitor, full curve, poor fit]"
CCOc1ccc(OCC)c2sc(C)nc12,inactive: -3.22%,
N#Cc1ccccc1Cn1cc(C#N)c2ccccc21,,"inconclusive: 35.5 µM [inhibitor, single point]"
COc1ccc(-n2c(=O)c3ccc(C(=O)NCc4ccc(C)cc4)cc3n(CC(=O)Nc3ccc(F)cc3)c2=O)cc1,,"inconclusive: 11.2 µM [inhibitor, partial curve, poor fit]"
Cc1ccc(C(=O)N/N=C/c2ccc3c(c2)OCO3)o1,inactive: 5.15%,
Cc1ccccc1-n1cc(CNC(=O)C2CCC(=O)N(C3CC3)C2)cn1 (stereo not given),inactive: -0.403%,
O=C(Nc1cnn(Cc2c(Cl)cccc2Cl)c1)C(c1ccccc1)c1ccccc1,,"inconclusive: 15.8 µM [inhibitor, single point]"
COC(=O)C1=CN(c2cccc(C)c2)C=C(C(=O)OC)C1c1cc(OC)c(O)c([N+](=O)[O-])c1,,"inconclusive: 3.26 µM [inhibitor, full curve, poor fit]"
O=c1cc(NCc2ccco2)c2ccccc2o1,,"inconclusive: 6.31 µM [inhibitor, partial curve, poor fit]"
O=C(CSc1cn(CCNC(=O)c2c(F)cccc2F)c2ccccc12)Nc1ccc2c(c1)OCCO2,inactive: 7.76% [at 46.1 µM],
COc1ccccc1Nc1nc(C2(C)CCC(=O)O2)cs1 (stereo not given),,"inconclusive: 20.6 µM [activator, single point]"
CCCCN1CCC(C#N)(Nc2ccccc2)CC1,,inactive
Cc1ccc(NC(=O)c2oc3ccccc3c2NC(=O)c2cc3ccccc3o2)cc1,,"inconclusive: 35.5 µM [activator, single point]"
CCOC(=O)c1sc(NC(=O)CSC(=S)N2CCN(C)CC2)nc1C,,"inconclusive: 5.01 µM [inhibitor, full curve, poor fit]"
O=C(NN1CCOCC1)c1cccc2ccccc12,inactive: 3.46%,
Cc1cc(C(=O)NNC(=O)Cc2ccc(Cl)cc2)c(C)o1,inactive: -23% [at 46.1 µM],
CCc1nnc(N2CCN(c3ncnc4c3oc3ccccc34)CC2)s1,,inactive
COc1ccc(C(=O)N2CC(=O)Nc3ccc(F)cc3C2c2ccc(F)cc2)c(OC)c1 (stereo not given),inactive: -6.69% [at 46.1 µM],
Cc1cccc(-n2cnc(C(=O)NNC(=S)Nc3ccc(Cl)cc3)c2)n1,,active: 11.2 µM
O=C(Nc1ccccc1-c1nnn(CC(=O)N2CCOCC2)n1)c1ccc(F)cc1,,"inconclusive: 5.01 µM [activator, single point]"
c1ccc2[nH]c(CSc3ncnc4c3oc3ccccc34)nc2c1,,"inconclusive: 25.9 µM [inhibitor, single point]"
Cc1cc(N2CCC(C)CC2)n2nc(C)c(-c3ccccc3)c2n1,inactive: 8.17%,

# Some of the entries so far, tab-delimited.
Structure (SMILES)	activity change, negative = inhibition	Potency
N#Cc1ccccc1Cn1cc(C#N)c2ccccc21		inconclusive: 35.5 µM [inhibitor, single point]
COc1ccc(-n2c(=O)c3ccc(C(=O)NCc4ccc(C)cc4)cc3n(CC(=O)Nc3ccc(F)cc3)c2=O)cc1		inconclusive: 11.2 µM [inhibitor, partial curve, poor fit]
Cc1ccc(C(=O)N/N=C/c2ccc3c(c2)OCO3)o1	inactive: 5.15%	
Cc1ccccc1-n1cc(CNC(=O)C2CCC(=O)N(C3CC3)C2)cn1 (stereo not given)	inactive: -0.403%	
O=C(Nc1cnn(Cc2c(Cl)cccc2Cl)c1)C(c1ccccc1)c1ccccc1		inconclusive: 15.8 µM [inhibitor, single point]
COC(=O)C1=CN(c2cccc(C)c2)C=C(C(=O)OC)C1c1cc(OC)c(O)c([N+](=O)[O-])c1		inconclusive: 3.26 µM [inhibitor, full curve, poor fit]
